Reference: article PMC6250667

Protein sequences, listed by entry. Tags and fused reporters are not part of them. Lines headed by an entry give the natural chain unless they say otherwise; changes in a name come on top.
UniProt Q76MZ3: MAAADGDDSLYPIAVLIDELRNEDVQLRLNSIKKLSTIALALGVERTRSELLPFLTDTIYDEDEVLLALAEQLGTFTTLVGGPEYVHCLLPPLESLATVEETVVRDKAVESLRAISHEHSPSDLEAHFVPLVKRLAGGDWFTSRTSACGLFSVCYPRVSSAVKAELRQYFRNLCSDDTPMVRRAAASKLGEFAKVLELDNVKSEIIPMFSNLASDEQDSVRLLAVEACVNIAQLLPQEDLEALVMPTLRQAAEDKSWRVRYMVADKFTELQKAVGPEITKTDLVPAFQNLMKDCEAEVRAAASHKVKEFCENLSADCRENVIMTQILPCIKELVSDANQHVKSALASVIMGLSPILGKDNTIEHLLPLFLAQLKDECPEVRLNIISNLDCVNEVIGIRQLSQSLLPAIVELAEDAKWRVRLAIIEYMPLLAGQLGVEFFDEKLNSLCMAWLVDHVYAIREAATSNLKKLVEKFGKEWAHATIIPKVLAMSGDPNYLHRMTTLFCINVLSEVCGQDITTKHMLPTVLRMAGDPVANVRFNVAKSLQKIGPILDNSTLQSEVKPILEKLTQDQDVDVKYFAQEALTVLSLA

Target: T1, FLAG Foxi3 FL 1–399 (mouse) (UniProt D3Z120)
T1 sequence: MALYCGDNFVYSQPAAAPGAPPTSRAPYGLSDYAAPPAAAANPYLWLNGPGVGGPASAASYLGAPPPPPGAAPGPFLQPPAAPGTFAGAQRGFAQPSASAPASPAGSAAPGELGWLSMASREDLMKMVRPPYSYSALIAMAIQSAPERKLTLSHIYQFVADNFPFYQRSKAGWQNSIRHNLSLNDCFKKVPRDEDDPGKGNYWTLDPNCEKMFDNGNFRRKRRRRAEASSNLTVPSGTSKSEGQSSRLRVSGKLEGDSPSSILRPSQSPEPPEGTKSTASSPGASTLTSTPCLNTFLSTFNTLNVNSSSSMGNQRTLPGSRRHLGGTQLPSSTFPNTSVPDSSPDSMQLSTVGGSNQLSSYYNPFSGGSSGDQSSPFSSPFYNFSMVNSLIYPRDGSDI
Assay: co-IP; Myc-tagged PP2A subunits co-transfected with FLAG Foxi3 in HEK-293T; anti-Flag M2 magnetic beads, 500 µg lysate, overnight at 4 °C, CoIP lysis buffer (Tris-HCl 25 mM pH 7.5, NaCl 150 mM, EDTA 1 mM, NP-40 1%, glycerol 5%, DTT 1 mM, phosphatase inhibitors); blot with MYC antibody

Myc-tagged PPP2R1A (from UniProt Q76MZ3)
binding: binds

These are yes or no findings as the source states them, for the method shown. Binding seen in cells or lysates may run through a third protein. Binding can be weak; no strength is given. Sequences can lack the tags named with a protein.
